This is one part of the list. Shown are side measurements of this screen, not its main read-out; they come without a call. Compounds called inactive in the main read-out are mostly missing here. Words in brackets tell the shape of the fitted curve; partial curves, single points and poor fits give uncertain potencies.
Assay: qHTS Assay for Modulators of Lamin A Splicing
Details: HeLa LMNA splicing GFP/RFP minigene ratio, 48 h
Outline: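 S3 HeLa stable clones carrying a lamin A-EGFP splicing minigene plus DsRed2 were seeded at 600 cells/well in Opti-MEM with 2% FBS, pin-dosed and incubated 48 h at 37°C. Acumen cytometry (488 nm) gave the GFP/RFP total-intensity ratio.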

[1] = measured here: RFP viability control channel
[2] = measured here: GFP splicing reporter channel

| SMILES | AC50 [1] | AC50 [2] |
| --- | --- | --- |
| COc1ccc(C2/C(=C(/O)c3ccc(OC(C)C)cc3)C(=O)C(=O)N2CCCN2CCOCC2)cc1 (stereo not drawn) | 0.0316 µM [falling, full curve, poor fit] | – |
| COCCn1c(=O)[nH]c2cc(C(=O)NCCN3CCN(c4ccccc4F)CC3)ccc2c1=O | 11.2 µM [rising, partial curve] | 3.55 µM [rising, partial curve] |
| O=C(CSC1=Nc2ccccc2N=C(c2ccc(F)cc2)C1)NCc1ccccc1Cl | – | 0.0178 µM [falling, full curve, poor fit] |
| CN=C(Nc1cc(Cl)ccc1Cl)SC1CC(=O)N(c2ccc(C(=O)OC)cc2)C1=O (stereo not drawn) | – | 12.6 µM [falling, partial curve] |
| CCOc1ccc(CNC(=O)c2sc3ncnc(N(C)C4CCCCC4)c3c2C)cc1 | 35.5 µM [falling, single point] | – |
| O=C(Nc1sc2c(c1C(=O)O)CCCCC2)c1ccccc1F | 0.708 µM [rising, single point] | – |
| O=C(c1ccco1)c1cc2c(ccc3ccccc32)oc1=O | 0.251 µM [rising, single point] | 35.5 µM [rising, single point] |
| CCn1cc(C(=O)NCc2ccccc2Cl)cn1 | 0.00501 µM [falling, full curve, poor fit] | 0.00447 µM [falling, full curve, poor fit] |
| COc1ccccc1NC(=O)CCc1nc(-c2ccccc2F)no1 | 0.0562 µM [falling, full curve, poor fit] | 0.0126 µM [falling, full curve, poor fit] |
| O=C(Nc1ccncc1)c1ccc2c(c1)OCCO2 | – | 0.0794 µM [rising, full curve, poor fit] |
| CCC(C)NC(=O)CSc1nc2ccccc2c(=O)n1-c1c(C)n(C)n(-c2ccccc2)c1=O (stereo not drawn) | 0.178 µM [rising, full curve] | – |
| Cc1cc(C)c(C#N)c(SCS(=O)c2ccc(C(C)(C)C)cc2)n1 (stereo not drawn) | 0.00355 µM [falling, full curve, poor fit] | 0.00447 µM [falling, full curve, poor fit] |
| COc1ccccc1CC(=O)Nc1ccc2nc(C)sc2c1 | 35.5 µM [rising, single point] | – |
| COCCCn1c(SCc2nnc(-c3ccc(OC)c(OC)c3)o2)nc2ccccc2c1=O | 35.5 µM [rising, single point] | – |
| Cc1nn(C(=O)c2ccccc2)c(C)c1S(=O)(=O)N1CCCCCC1 | 0.631 µM [falling, full curve] | 0.794 µM [falling, full curve] |
| COc1cccc(N2CCN(Cc3nc4scc(-c5ccccc5)c4c(=O)[nH]3)CC2)c1 | 3.98 µM [rising, full curve] | – |
| COc1ccc(OCC(=O)Nc2cc(-c3nn(C)c(=O)c4ccccc34)ccc2OC)cc1 | 6.31 µM [rising, full curve] | 3.55 µM [rising, full curve] |
| COc1ccccc1NC(=O)c1sc2ncn(Cc3ccccc3Cl)c(=O)c2c1C | 0.0501 µM [falling, full curve, poor fit] | – |
| CO[C@H]1/C=C/O[C@@]2(C)Oc3c(C)c(O)c4c(O)c(c5c(c4c3C2=O)NC2(CCN(CC(C)C)CC2)N=5)=NC(=O)/C(C)=C\C=C\[C@H](C)[C@H](O)[C@@H](C)[C@@H](O)[C@@H](C)[C@H](OC(C)=O)[C@@H]1C | 31.6 µM [rising, single point] | – |
| O=c1[nH]c(Cc2ccccn2)nc2scc(-c3ccc(Cl)cc3)c12 | 3.16 µM [rising, partial curve, poor fit] | – |
| COc1ccc(NS(=O)(=O)c2ccc(NC(C)=O)cc2)c(OC)c1 | 0.0708 µM [falling, full curve, poor fit] | – |
| CN(Cc1nc(-c2cnccn2)no1)Cc1n[nH]c2c1CCCC2 | 0.0126 µM [rising, full curve] | – |
| O=C(NC(=S)N1CCc2ccccc21)c1ccc(Br)o1 | 35.5 µM [falling, single point] | – |
| Cc1ccc(S(=O)(=O)Oc2ccc(/C=N/NC(=O)c3nn(C)cc3[N+](=O)[O-])cc2)cc1 | 35.5 µM [rising, single point] | – |
| COc1ccc(NC(=S)Nc2ccccn2)c(OC)c1 | 35.5 µM [falling, single point] | 35.5 µM [falling, single point] |
| CC1=NC(Nc2nc(C)c3ccccc3n2)=NC(C)(C)C1 | 10 µM [rising, partial curve] | – |
| CC1CCCCN1C(=O)c1ccc(COc2ccc([N+](=O)[O-])cc2)o1 (stereo not drawn) | 15.8 µM [rising, single point] | – |
| CCOc1cc(C)cc2oc(=O)cc(-c3ccccc3)c12 | – | 35.5 µM [falling, single point] |

3 entries from above, tab-delimited:
SMILES	AC50 [1]	AC50 [2]
COc1ccccc1NC(=O)c1sc2ncn(Cc3ccccc3Cl)c(=O)c2c1C	0.0501 µM [falling, full curve, poor fit]	–
CO[C@H]1/C=C/O[C@@]2(C)Oc3c(C)c(O)c4c(O)c(c5c(c4c3C2=O)NC2(CCN(CC(C)C)CC2)N=5)=NC(=O)/C(C)=C\C=C\[C@H](C)[C@H](O)[C@@H](C)[C@@H](O)[C@@H](C)[C@H](OC(C)=O)[C@@H]1C	31.6 µM [rising, single point]	–
O=c1[nH]c(Cc2ccccn2)nc2scc(-c3ccc(Cl)cc3)c12	3.16 µM [rising, partial curve, poor fit]	–

Later entries

| SMILES | AC50 [1] | AC50 [2] |
| --- | --- | --- |
| Cc1ccc(CNC(=O)COc2ccccc2-c2ccccc2)cc1 | 35.5 µM [rising, single point] | – |
| Cc1cc2cc(CCNC(=O)c3cccs3)c(=O)[nH]c2cc1C | 12.6 µM [rising, partial curve] | – |
| CC1=NNC(=O)C1CCC(=O)N/N=C/C(Br)=C/c1ccccc1 (stereo not drawn) | 25.1 µM [rising, single point] | – |
| CCOc1cc(/C=N/NC(=O)OC)ccc1OCCSc1ccc(Cl)cc1 | 14.1 µM [rising, partial curve, poor fit] | 6.31 µM [rising, partial curve] |
| Cc1ccc(C)c(N2CCN(C(=O)CN3C(=O)c4ccccc4C3=O)CC2)c1 | 31.6 µM [rising, single point] | 12.6 µM [rising, single point] |
| CC1=C(C(=O)OC(C)C)C(C)C(C(=O)OC(C)C)=C(C)N1 | 22.4 µM [rising, single point] | – |
| COc1ccc(-n2ncc3c(N4CCCCC4)ncnc32)cc1 | 10 µM [rising, partial curve, poor fit] | – |
| COc1ccc(N2C(=O)CCC2=O)c(OC)c1 | – | 4.47 µM [rising, partial curve, poor fit] |
| CC(=O)c1ccc(N2CCN(C(=O)c3ccc(Cn4c(=O)[nH]c5ccccc5c4=O)cc3)CC2)cc1 | – | 0.01 µM [falling, full curve, poor fit] |
| CCOC(=O)C1CCN(C(=O)c2oc3ccc(S(=O)(=O)N4CC(C)CC(C)C4)cc3c2C)CC1 (stereo not drawn) | 20 µM [rising, single point] | – |
| CC1CCCN(C(=O)c2ccc3c(=O)n(Cc4ccc5c(c4)OCO5)c(=S)[nH]c3c2)C1 (stereo not drawn) | 12.6 µM [rising, partial curve] | 14.1 µM [rising, partial curve] |
| CCn1c(/C=C/N(C)c2ccccc2)[n+](CC)c2ccc(Cl)cc21 | 3.55 µM [rising, single point] | – |
| CCC(CC)COC(=O)C(C#N)c1nc2ccccc2nc1N1CCOCC1 (stereo not drawn) | 14.1 µM [rising, partial curve] | 15.8 µM [rising, partial curve, poor fit] |
| Cc1ccc(C(=O)NC(c2ccccc2)C(Cl)Cl)cc1 (stereo not drawn) | 2.82 µM [rising, partial curve, poor fit] | – |
| OCC1(CO)COC(c2ccccc2)=N1 | 0.0316 µM [rising, full curve, poor fit] | 1 µM [rising, full curve] |
| Clc1ccccc1CSc1ncn(-c2ccccc2)n1 | – | 35.5 µM [rising, single point] |
| Cc1cc(C)c(NC(=O)CCC(=O)N2Cc3ccccc3Oc3ncccc32)c(C)c1 | 7.94 µM [falling, partial curve, poor fit] | 14.1 µM [falling, partial curve] |
| CCOC(=O)CSC1=NC(=O)/C(=C\c2ccc(Cl)cc2)S1 | 22.4 µM [falling, partial curve] | 15.8 µM [falling, partial curve] |
| c1ccc(N(c2ccccc2)c2nc(N3CCCC3)nc(-n3ccnc3)n2)cc1 | 35.5 µM [rising, single point] | 35.5 µM [rising, single point] |
| CCn1c(-c2sc(-c3ccccc3)nc2C)n[nH]c1=S | 3.55 µM [rising, full curve, poor fit] | 7.08 µM [rising, partial curve] |
| COc1ccc(Nc2cc(C)c3cc(NC(=O)c4cc(OC)cc(OC)c4)ccc3n2)cc1 | 31.6 µM [rising, single point] | – |
| CCN1C(=O)/C(=c2\s/c(=C3\Sc4ccccc4N3C)c(=O)n2C)N(C)C1=S | 0.631 µM [falling, full curve] | 1.26 µM [falling, full curve, poor fit] |
| CCN1C(=O)C(CC(=O)Nc2ccc(OC)cc2)N(CCN2CCOCC2)C1=S (stereo not drawn) | – | 0.355 µM [rising, partial curve, poor fit] |
| Oc1ccccc1C1OCC2(CO1)COC(c1ccccc1O)OC2 (stereo not drawn) | – | 12.6 µM [falling, single point] |
| Cc1ccc(-n2cccn2)c(CN2CCC(CO)(CCc3ccccc3)CC2)c1 | – | 0.0501 µM [falling, full curve, poor fit] |
| O=C(COc1ccc(Cl)cc1Cl)NCCCCc1ccccc1 | 10 µM [falling, partial curve, poor fit] | – |
| O=C(Cc1ccccc1)Nc1cccc(C(=O)O)c1O | 0.316 µM [falling, full curve] | – |
